# Laboratory results published in patent US7928129B1, “Nanomolar β-lactamase inhibitors” (Northwestern University, priority 2002, dated 2011).
# Sequences of proteins named here, by UniProt entry; tags and fusion partners are left off. Residues count along the entry.
# UniProt P00811, 20-377: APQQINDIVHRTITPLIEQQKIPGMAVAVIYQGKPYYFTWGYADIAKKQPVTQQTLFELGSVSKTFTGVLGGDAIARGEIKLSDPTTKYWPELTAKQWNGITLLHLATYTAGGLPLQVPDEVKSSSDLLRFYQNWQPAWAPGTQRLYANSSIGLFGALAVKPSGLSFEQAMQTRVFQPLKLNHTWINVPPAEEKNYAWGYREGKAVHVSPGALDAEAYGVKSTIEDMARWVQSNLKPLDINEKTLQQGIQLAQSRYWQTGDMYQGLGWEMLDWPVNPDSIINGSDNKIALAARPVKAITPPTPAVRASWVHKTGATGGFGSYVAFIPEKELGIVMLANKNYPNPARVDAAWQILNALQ
# UniProt P00811, 20-377 N305A: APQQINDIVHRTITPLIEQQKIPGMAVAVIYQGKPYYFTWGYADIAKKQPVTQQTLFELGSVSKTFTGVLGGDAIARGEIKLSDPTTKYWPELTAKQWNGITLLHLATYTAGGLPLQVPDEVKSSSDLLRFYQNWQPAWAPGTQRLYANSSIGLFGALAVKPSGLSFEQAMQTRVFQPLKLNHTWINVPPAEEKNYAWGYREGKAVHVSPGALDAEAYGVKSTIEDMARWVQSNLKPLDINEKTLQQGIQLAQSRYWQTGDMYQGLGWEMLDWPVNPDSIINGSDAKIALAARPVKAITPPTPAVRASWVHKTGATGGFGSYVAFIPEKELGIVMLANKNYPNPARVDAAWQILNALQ
# UniProt P00760, 24-246: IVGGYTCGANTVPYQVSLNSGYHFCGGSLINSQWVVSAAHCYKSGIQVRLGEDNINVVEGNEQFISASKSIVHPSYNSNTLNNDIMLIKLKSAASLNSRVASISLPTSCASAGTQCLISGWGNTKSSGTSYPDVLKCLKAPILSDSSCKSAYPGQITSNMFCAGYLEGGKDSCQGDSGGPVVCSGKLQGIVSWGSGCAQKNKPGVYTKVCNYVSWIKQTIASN
# For some of these results: For at least one compound, name, drawing or mass did not settle the structure. Some results were stated once for a whole list of compounds, not compound by compound.
# What was measured:
# Format in all cases: biochemical
# AmpC β-lactamase = biological target: T1, AmpC β-lactamase (Escherichia coli, UniProt P00811); details: for ΔΔG from 1: differential free energy of binding relative to compound 1, 298 K, positive = improved affinity
# T1 construct: made in house
# Protocol: Enzymology. The phenylglycylboronic acids of the preceding examples were dissolved in DMSO at a concentration of 50 mM; more dilute stocks (10 mM to 1 μM) were subsequently prepared as necessary. Kinetic measurements were performed using nitrocefin as substrate in 50 mM Tris buffer, pH 7.0 and monitored in an HP8453 UV/Vis spectrophotometer. The concentration of AmpC was determined spectrophotometrically in stock solutions made from lyophilized powder; this enzyme had been previously expressed and purified. Usher, K. C., Blaszczak, L. C., Weston, G. S., Shoichet, B. K. and Remington, S. J. Biochemistry 1998, 37, 16082-16092. […] To determine K, values, inhibitor and enzyme were incubated together at their final concentration in the cuvettes for five minutes before the reaction was initiated by the addition of 200 μM substrate. […] Waley, S. G. Biochem. J. 1982, 205 631-633. […] In all reactions, rates were measured after reactions had overcome their initial lag phase and had reached a steady state.
# (§1) Mutant Enzymology. The glycylboronic acids were dissolved in DMSO at a concentration of 50 mM; more dilute stocks were subsequently prepared as necessary. Kinetic measurements were performed using nitrocefin as a substrate in 50 mM Tris buffer, pH 7.0, and monitored at 480 nm in an HP9453 UV-vis spectrophotometer. To prevent overestimation of inhibition due to sequestration of the enzyme on the walls of the cuvette during the reaction, 0.1% BSA was added to the buffer in all reactions. […] To determine Ki values, inhibitor and enzyme were incubated together in the cuvettes for 5 min before reaction was initiated by the addition of substrate. 200 μM nitrocefin was used for the reactions with L119A and L293A, whereas 400 μM nitrocefin was used for the reactions with N289A to shorten the lag phase of the reaction. For the reactions with N289A, rates were calculated from the later portions of the curve, once the reactions had achieved steady state. These rates were compared with portions of the uninhibited curves that corresponded to the same range of substrate concentrations.
# AmpC N289A = biological target: T2, AmpC N289A (Escherichia coli, UniProt P00811, N305A)
# T2 construct: made in house
# Protocol: Enzyme mutagenesis and preparation. Mutants of AmpC were created using the overlap extension polymerase chain reaction (23). Mutant enzymes were expressed as described. AmpC N289A and L293A were purified on an m-aminophenylboronic acid affinity column. AmpC L119A was purified on an S-Sepharose ion-exchange column. The purified enzymes were concentrated using Centricon spin concentrators.
# as §1, with “These rates were compared with portions of the uninhibited curves that corresponded to the same range of substrate concentrations.” left out
# [1] = biological target: β-trypsin (bovine pancreatic) (Bos taurus, UniProt P00760); assay: Selectivity: serine protease β-trypsin
# Description: Selectivity. […] The reaction was monitored at 410 nm. […] The reaction was monitored at 253 nm. […] The reaction was monitored at 385 nm.
Structure (SMILES),ΔΔG from 1 (AmpC β-lactamase),no measurable activity against β-trypsin below [1],other results
"CC1(C)C2CC3OB([C@@H](NC(=O)Cc4cccs4)c4cccc(C=O)c4)O[C@@]3(C)C1C2 (single isomer, unassigned; (+)) [Compound 26]",,,"fold less active than compound 16 (AmpC β-lactamase; wild-type AmpC): 15 fold; fall in affinity relative to the affinity of 16 for the mutant (AmpC N289A; AmpC N289A): negligible; ΔΔΔG, hydrogen bond energy between Asn289 and the inhibitor group (AmpC N289A; thermodynamic cycle, WT AmpC / N289A, mutant ligand 21): negligible"
"Cc1onc(-c2ccccc2Cl)c1C(=O)NCB(O)O [Compound 2, reference compound]",2.85 kcal/mol,,
"O=C(Cc1cccs1)NCB(O)O [Compound 4, reference compound]",2.40 kcal/mol,,
"O=C(Cc1cccs1)N[C@H](B(O)O)c1cccc(C(=O)O)c1 [Compound 16, (1R)-1-(2-thienylacetylamino)-1-(3-carboxyphenyl)methylboronic acid]",,> 1 mM,
"O=C(Cc1cccs1)N[C@H](B(O)O)c1ccccc1 [Compound 21, (1R)-1-(2-thienylacetylamino)-1-phenylmethylboronic acid]",,> 1 mM,
